# Legend:
# [1] = system: P. falciparum TM90C6B strain; assay: Resistance assessment, TM90C6B strain; format: cell-based, Plasmodium falciparum
# [2] = system: P. falciparum (3D7 strain); assay: In vitro antiplasmodial activity, P. falciparum blood-stage parasites, SYBR Green I; format: cell-based, Plasmodium falciparum; settings: RI = IC50^resistant strain/IC50^3D7
# Protocol: The P. falciparum strains were cultivated in human blood cells (hRBC) O^+, while P. knowlesi was cultivated in rhesus red blood cells (rRBC) as described. P. falciparum complete RPMI (consisting of RPMI-1640, supplemented with 0.2% NaHCO3, 25 mM HEPES (pH 7.4), 11 mM D-glucose, 10 mg/L hypoxanthine, 25 mg/L gentamicin, and 0.5% (m/v) AlbuMAX II). The parasitemias of these cultures were maintained below 10% with 2.5% hematocrit. P. knowlesi complete RPMI (consisting of RPMI-1640 supplemented with 25 mM HEPES, […] hypoxanthine, 0.26% NaHCO3, 10 mg/L gentamicin, and 1% Albumax II). This culture was maintained with RBCs up to 5% hematocrit. The culture medium was changed daily, and all cultures were maintained under a 90% N2/5% CO2/5% O2 gas mixture at 37 °C. All compounds were purchased from Sigma-Aldrich (Cotia, Brazil).
# The antiplasmodial activity of brussonol and derivatives was evaluated against P. falciparum blood parasites 3D7(chloroquine-sensitive). The parasites were synchronized through sterile 5% (m/v) D-sorbitol treatment over 10 min at 37 °C for the enrichment of ring stages. Centrifugation 600× g over 5 min was used to pellet the cultures. The parasitemia was determined by microscope analysis of thin blood smears stained with Giemsa 10% (v/v) after fixation with methanol. The initial parasitemia was calculated for 1000 red blood cells (RBCs), and cultures were diluted to 0.5% parasitemia and 2% hematocrit by the addition of the appropriate volumes of blood and medium. A total of 180 µL aliquots of parasites were distributed into 96-well plates followed by the addition of 20 µL of previously prepared aliquots of ten-fold concentrated compounds, the range of concentrations tested was 10–1.53 µM. Negative and positive control wells, which correspond to non-parasitized erythrocytes and parasite cultures in the absence of compounds, were set in parallel. […] Once completed incubation, the culture medium was removed, and the cells were resuspended in 100 µL PBS (116 mM NaCl, 10 mM NaH2PO4, 3 mM KH2PO4) and lysed with 100 µL lysis buffer (20 mM Tris base, 5 mM EDTA, 0.0008% (v/v) Triton X-100, 0.008% (m/v) saponin, pH 8.0) containing 0.002% (v/v) SYBR Green I. Plates were incubated for 30 min at room temperature, and a SpectraMAX Gemini EM plate reader (Molecular Devices Corp., Sunnyvale, CA) was used to determine the fluorescence corresponding to parasitic density (excitation at 485 nm, emission at 535 nm). The half-maximal inhibitory concentration (IC50^Pf) was determined by non-linear regression analysis of the resulting concentration–response curve using the software GraphPad Prism version 8.0.1 for Windows, GraphPad Software, San Diego, California USA, www.graphpad.com, accessed on 3 March 2022”.
# P. falciparum Dd2 strain = assay: Resistance assessment, Dd2 strain; format: cell-based, Plasmodium falciparum
# P. falciparum K1 strain = assay: Resistance assessment, K1 strain; format: cell-based, Plasmodium falciparum
# [3] = system: P. falciparum 3D7^r_MMV848 strain; assay: Resistance assessment, 3D7r-MMV848 strain; format: cell-based, Plasmodium falciparum
# HepG2 cells = assay: Cytotoxic test on immortalized cells, MTT; format: cell-based, human; settings: SI = IC50^HepG2/IC50^Pf
# Protocol: The cytotoxic effects of brussonol and derivatives were evaluated against the human hepatocellular carcinoma cell line (HepG2). The cells were cultivated in an RPMI medium supplemented with 10% (v/v) fetal bovine serum and 25 µg/mL gentamicin. Conditions for the cultivation of these cells were 37 °C and 5% CO2, and every 2 days the supplemented medium was changed.
# For experimental procedures, the cells were trypsinized and transferred to a 96-well plate at 30,000 cells per well (180 µL). The plate was incubated at 37 °C and 5% CO2 to allow cell adhesion. Next, 20 µL of serial dilutions of the compounds tested were added to the plate, with a range of concentrations tested from 400–6.25 µM. Cells without any compounds were used as a positive control for growing and the wells containing only medium were used as negative controls. The plate was incubated for 72 h at 37 °C and 5% CO2. After incubation, a microscope was used to determine the highest compound concentration to be used in the experiments (highest concentration without precipitation). […] The absorbance, which is proportional to the number of viable cells, was determined using a SpectraMAX Plus 384 plate reader (Molecular Devices Corp., Sunnyvale, CA) (λ = 570 nm). […]
# After the IC50 against the parasite and the human cell line is determined, it is possible to calculate the SI. It is calculated as the formula below:SI = IC50^HepG2/IC50^Pf. […]
# [4] = RI = IC50^resistant strain/IC50^3D7
# [5] = RI = IC50^resistant strain/IC50^3D7, listed as Brussonol
# [6] = RI = IC50^resistant strain/IC50^3D7, listed as brussonol
Compound,"RI [1, 4]",RI [2],RI (P. falciparum Dd2 strain; [4]),RI (P. falciparum K1 strain; [4]),"RI [3, 4]",RI (P. falciparum Dd2 strain; [5]),RI (P. falciparum Dd2 strain; [6]),"RI [3, 5]","RI [3, 6]",RI (P. falciparum K1 strain; [5]),RI (P. falciparum K1 strain; [6]),SI (HepG2 cells),"RI [1, 5]","RI [1, 6]"
"O=C1C(O)=C([C@H]2CC[C@H](c3ccc(Cl)cc3)CC2)C(=O)c2ccccc21 [atovaquone, reference compound]",4285,1,,,,,,,,,,,,
CCc1nc(N)nc(N)c1-c1ccc(Cl)cc1 [pyrimethamine],,1,>166,>166,,,,,,,,,,
C[C@H]1[C@H](OC(=O)CCC(=O)O)O[C@@H]2O[C@@]3(C)CC[C@H]4[C@H](C)CC[C@@H]1[C@@]24OO3 [artesunate],1,1,1,1,2,,,,,,,,,
"CC(C)c1cc2c(c(O)c1O)C[C@@]13CCCC(C)(C)[C@@H]1C[C@@H]2O3 [Compound 1, brussonol]",,1,,,,< 5,0.5,< 5,1,< 5,0.5,4,< 5,0.5

# Reference: publication PMC9321043, “Synthesis, Structure–Activity Relationships, and Parasitological Profiling of Brussonol Derivatives as New Plasmodium falciparum Inhibitors” (Pharmaceuticals, 2022)
